Results deposited as PubChem BioAssay AID493246 (Drosophila RNAi Screening Center, 2011)

Screen: 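Genes fly cells need to grow and stay alive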 (primary screen)
System: Drosophila Kc and S2R+ cells
Knock-down reagent: long dsRNA against Drosophila genes
Detection: 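Raw, unnormalised count of remaining cells in each well; per-plate z-scores of cell number underlie the calls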
Direction: Kc cell number and S2R+ cell number: higher = more cells remaining
Call rule: 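Active when the per-plate z-score of cell number is 3 or more in the direction of fewer cells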
The screen tested about 21,000 reagents; this is a random part of those that have a named target and a result. Over the whole deposit, 429 (2%) are marked active. 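Values are raw and not normalised between plates; calls rest on per-plate z-scores that were not deposited.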 Unmarked entries are inactive. Reagents against one gene are numbered here. Names joined by + are all predicted targets of the reagent. The record does not give: the amount of reagent, the time to read-out.

Kc cell number, rep 1 | Kc cell number, rep 2 | S2R+ cell number, rep 1 | S2R+ cell number, rep 2 | gene knocked down | reagent no.
5.23e5 | – | 7.28e5 | – | Wdr24 (WD repeat domain 24) | 1
1.47e6 | 1.55e6 | 1.22e6 | 1.38e6 | CG42268 | 1
1.43e6 | 1.55e6 | 1.42e6 | 1.52e6 | CG42268 | 2
1.12e6 (active) | 1.18e6 | 6.58e5 | 7.60e5 | ATPsyngamma (ATP synthase, gamma subunit) | 1
6.01e5 | – | 9.35e5 | – | Inx2 (Innexin 2) | 1
1.24e6 | 1.39e6 | 1.20e6 | 1.27e6 | GatC + PolG2 | 1
1.45e6 | 1.55e6 | 1.02e6 | 1.13e6 | CG4928 | 1
1.40e6 | 1.56e6 | 8.75e5 | 1.04e6 | Nup214 (Nucleoporin 214kD) | 1
1.67e6 | 1.80e6 | 1.29e6 | 1.40e6 | NPFR (Neuropeptide F receptor) | 1
1.38e6 | 1.65e6 | 1.25e6 | 1.30e6 | CG14095 | 1
1.38e6 (active) | 1.19e6 | 5.37e5 | 6.10e5 | fzy (fizzy) | 1
7.55e5 | 1.13e6 | 2.27e5 | 3.00e5 | CG7239 | 1
1.59e6 | 1.73e6 | 1.32e6 | 1.52e6 | CG1172 | 1
1.56e6 | 1.79e6 | 1.05e6 | 1.20e6 | snRNP-U1-70K (small ribonucleoprotein particle U1 subunit 70K) | 1
1.57e6 | 1.60e6 | 1.17e6 | 1.23e6 | EMRE (Essential MCU regulator) | 1
1.28e6 | 1.37e6 | 1.35e6 | 1.39e6 | grp + CG31782 (retired record) | 1
5.70e5 | – | 9.01e5 | – | Fili (Fish-lips) | 1
1.55e6 | 1.67e6 | 1.34e6 | 4.06e5 | Fili (Fish-lips) | 2
1.54e6 | 1.65e6 | 1.37e6 | 3.87e5 | Fili (Fish-lips) | 3
1.51e6 | 1.41e6 | 1.12e6 | 1.22e6 | CG15629 | 1
1.30e6 | 1.35e6 | 1.17e6 | 1.20e6 | alpha-Spec (alpha Spectrin) | 1
1.52e6 | 1.54e6 | 8.53e5 | 9.27e5 | heca (headcase) | 1
5.35e5 | – | 9.06e5 | – | CG7766 | 1
1.80e6 | 1.86e6 | 1.54e6 | 1.58e6 | park + Targ3 | 1

2 of these entries, reformatted.
| Kc cell number, rep 1 | Kc cell number, rep 2 | S2R+ cell number, rep 1 | S2R+ cell number, rep 2 | gene knocked down | reagent no. |
| --- | --- | --- | --- | --- | --- |
| 1.55e6 | 1.67e6 | 1.34e6 | 4.06e5 | Fili (Fish-lips) | 2 |
| 1.54e6 | 1.65e6 | 1.37e6 | 3.87e5 | Fili (Fish-lips) | 3 |
